PubChem BioAssay AID1259308 – NCATS | 2017
The whole screen tested about 59,000 reagents; below is an unselected part. Over the whole deposit, about 1,510 (2.6%) are marked active. 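Calls use total luciferase alone and ignore viability, so some active siRNAs may act by altering cell number.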 Reagents against one gene are numbered here. Not all columns of the deposit are shown.

Test: 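Candidate targets for better recombinant protein yield in mammalian cells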 (primary screen)
Cell system: human HEK293 embryonic kidney cells stably expressing firefly luciferase (HEK-CMV-Luc2-Hygro)
Knock-down reagent: single siRNA against human genes, 0.8 pmol siRNA per well
Timing: 72 h
Measured: 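Reporter luminescence and viable-cell signal on separate replicate plates, given as percent of non-targeting control and median/MAD z-scores, plus per-cell luciferase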
Direction: total luciferase, z-score: higher = more reporter protein produced
Hit rule: 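An siRNA counts as active if its total luciferase robust z-score exceeds 3; genes with two or more such siRNAs out of three were retested with fresh siRNAs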
Meaning of the calls: active = raised luciferase; inactive = no rise

Against PLCD1 #1 the deposit lists total luciferase, z-score 1.15; inactive.
After knock-down of PLCD1 #2 the results were total luciferase, z-score 0.542; inactive.
For PLCD1 #3, the values are total luciferase, z-score -0.0977; inactive.
ANKRD34C #1 gave total luciferase, z-score -0.789; inactive.
After knock-down of ANKRD34C #2, the screen gave total luciferase, z-score 0.0184; inactive.
Silencing of ANKRD34C #3 gave: total luciferase, z-score -0.183; inactive.
IQCH #1 showed total luciferase, z-score 0.788; inactive.
For IQCH #2, the entry reads total luciferase, z-score 0.00936; inactive.
After knock-down of IQCH #3 the results were total luciferase, z-score 0.684; inactive.
With knock-down of CFH #1 the results were total luciferase, z-score 1.72; inactive.
CFH #2 scored total luciferase, z-score -1.05; inactive.
For CFH #3 the deposit lists total luciferase, z-score -0.537; inactive.
Depletion of RGR #1 came out at: total luciferase, z-score -0.299; inactive.
After knock-down of RGR #2, the record shows total luciferase, z-score 0.759; inactive.
After knock-down of RGR #3 the results were total luciferase, z-score -0.932; inactive.
Against ZNF30 #1, the entry reads total luciferase, z-score -2.28; inactive.
ZNF30 #2 showed total luciferase, z-score -0.712; inactive.
ZNF30 #3 showed total luciferase, z-score 0.351; inactive.
TMSB4Y #1 showed total luciferase, z-score -1.27; inactive.
TMSB4Y #2 scored total luciferase, z-score 2.29; inactive.
TMSB4Y #3 gave total luciferase, z-score 1.33; inactive.

Not a retest: an excerpt of the list.
CFH #2: total luciferase, z-score = -1.05; call = inactive
CFH #3: total luciferase, z-score = -0.537; call = inactive
